Test results as given in patent publication US8889731B2, “Compounds, compositions and methods for repelling blood-feeding arthropods and deterring their landing and feeding” (Contech Enterprises Inc., priority 2007, dated 2014).
Some of these results come from one statement about several compounds together. At least one compound was matched to its structure with a doubt left.

system: male or female Aedes aegypti antennae; test: Coupled gas chromatographic-electroantennographic detection (GC-EAD) of garlic oil extract
Description: FIG. 1 illustrates flame ionization detector (FID) and electroantennograhic detector (EAD: male or female Aedes aegypti antennae) responses to aliquots of the low boiling temperature portion of garlic oil extract. Chromatography: Hewlett Packard (HP) gas chromatograph equipped with a fused silica column (30 m×0.32 mm ID) coated with DB-5; injector and detector temperature: 250° C.; temperature program: 50° C.
Aliquots of garlic oil extracts were then subjected to coupled gas chromatographic-electroantennographic detection (GC-EAD) analysis. Fourteen components (10 shown in FIG. 1) elicited responses from female or male mosquito antennae. Some of these components were isolated by high-performance liquid chromatography (HPLC) for identification by nuclear magnetic resonance spectroscopy (NMR). Other components were identified (compounds 11-14 in TABLE 2) by coupled GC-mass spectrometry and by retention index calculations. […] Four of the 10 components in FIG. 1 were tentatively identified by comparing their mass spectra and retention indices with those reported in the literature (Block et al. 1998).
Components with high molecular weight (>250 daltons) are advantageous in that they: 1) dissipate slowly from treated surfaces; 2) provide long-lasting protection against mosquitoes and 3) convey little, if any, offensive smell. The relative abundance of such components was enhanced by treating garlic oil under vacuum, thus stripping away lower-boiling components. In GC-EAD analyses of the high-boiling residue, four components elicited responses from mosquito antennae.

Structure (SMILES) | electroantennographic (EAD) response of mosquito antennae
C1=CSSSC1 [Compound 5, [4H]-1,2,3-trithiin] | elicited responses from antennae
C=CCSSSC [Compound 4, methylallyl trisulfide] | elicited responses from antennae
C1=CSSSSC1 [Compound 9, [5H]-1,2,3,4-tetrathiepine] | elicited responses from antennae
C=CCSSC [Compound 1, methylallyl disulfide] | elicited responses from antennae
C=CCSSSSC [Compound 8, methylallyl tetrasulfide] | elicited responses from antennae
C1CSSC1 [Compound 2, [3H]-1,2-dithiolane] | elicited responses from antennae
C=CCSSSSCC=C [Compound 10, diallyl tetrasulfide] | elicited responses from antennae
CC1CSSSS1 (stereo not drawn) [Compound 7, 5-methyl-1,2,3,4-tetrathiane] | elicited responses from antennae
C=CCSSSCC=C [Compound 6, diallyl trisulfide] | elicited responses from antennae
